This is an account of results in PubChem BioAssay AID493014 (National Center for Advancing Translational Sciences (NCATS), 2011).

A word on the AC50: it is the midpoint of the concentration-response curve, whichever way the signal moves.

The list shows a part of the results. Further columns of the screen follow, without active or inactive calls. Most of these compounds were active or inconclusive in the main read-out, so they are no random draw. Words in brackets tell the shape of the fitted curve; partial curves, single points and poor fits give uncertain potencies.

A short description of this test: qHTS Assay to Find Inhibitors of Chronic Active B-Cell Receptor Signaling. Conditions: ABC-DLBCL IkBa-CBG/CBR reporter, luminescence ratio (green luciferase fused to IkBa over red control in TMD8 lymphoma cells), 4 h. The essentials:
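Concentration-response series (up to 46 uM) were applied to TMD8 dual-reporter cells for 4 h at 37C with doxycycline. Green/red ratio, after filter-overlap correction, defined %Activity; red signal alone was normalised to basal cells and zero luminescence.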

[1] abbreviates: measured here: CBR red luminescence, cell number.
The mark [2] stands for this setting: measured here: IkBa-CBG green luminescence.

Take `O=S(c1ccsc1)c1ccsc1`: the AC50 under setting [1] is 29.1 µM [rising, single point].
Same read-out and setting: as for `O=c1[nH]c(CSc2nc(-c3ccccc3)cs2)nc2ccccc12`, the figure is 29.1 µM [falling, single point].
For the compound `CC(C)Cc1ccc(S(=O)(=O)N2CCN(C(=O)c3ccco3)CC2)cc1`, under setting [1], the AC50 was 8.91 µM [falling, partial curve].
For the compound `COc1cccc(C(=O)N2CCn3c2nc2ccccc23)c1`, under setting [1], the AC50 was 5.01 µM [rising, partial curve].
As for `COc1ccc(-c2c(N)nnc3c2[nH]c2ccccc23)cc1OC`, the AC50 under setting [1] is 12.6 µM [falling, single point].
As for `CC1=CC(c2ccccc2)=NS(=O)(=O)N1`, the half-maximal activity concentration (AC50) under setting [1] is 11.6 µM [rising, partial curve, poor fit].
Take `CCONC(=O)Nc1ccccc1[N+](=O)[O-]`: the AC50 under setting [1] was 8.2 µM [rising, partial curve, poor fit] and the AC50 under setting [2] is 18.4 µM [falling, partial curve, poor fit].
Take `CC(=O)c1c(C)[nH]c(C(=O)Nc2ccc(C)cc2Br)c1C`: the AC50 under setting [1] is 1.26 µM [rising, full curve, poor fit].
In the case of `CCCn1c(=O)c(C(=O)Nc2cc(C)ccn2)c(O)c2ccccc21`, the AC50 under setting [1] was 14.1 µM [rising, partial curve].
For `C[n+]1nc(Nc2cccc(F)c2)sc1-c1ccc(C(=O)O)cc1`, the AC50 under setting [1] was 10 µM [falling, partial curve].
Still for that read-out and setting: for `COc1ccc([C@H]2[C@@H]3C=CCC[C@@]3(C)C(=O)N2Cc2ccccc2)cc1Cl` the value was 12.6 µM [falling, partial curve, poor fit].
Turning to `O=C(NCC1CCCCC1)C1(CC2CC(c3cccc(Br)c3)=NO2)CCNCC1` (configuration not stated), under setting [1], the concentration at half-maximal activity (AC50) is 15.8 µM [falling, single point].
As for `CCCc1cc(=O)n2nc(N3CCC(C(=O)Nc4cccc(C(C)=O)c4)CC3)sc2n1`, the AC50 under setting [1] is 35.5 µM [rising, single point].
For the compound `C/C(O)=C(/C#N)c1nc2ccccc2[nH]1`, the AC50 under setting [1] is 8.91 µM [falling, partial curve, poor fit].
With `CC(C)(C)NC(=O)CCC1COc2ccccc2O1` (configuration not stated), the AC50 under setting [1] was 25.9 µM [rising, partial curve, poor fit].
`COc1ccc(/C(C)=N/NC(=O)c2ccccc2N)cc1`: the AC50 under setting [1] was 17.8 µM [falling, partial curve, poor fit].
For the compound `COc1ccc(NC(=O)n2ncc3c(C)cccc32)cc1OC`, under setting [1], the concentration at half-maximal activity (AC50) is 22.4 µM [falling, partial curve, poor fit].
With `Cc1ccc2nc(SCC(=O)Nc3ccc4c(c3)OCCO4)nc(=O)n2c1`, the concentration at half-maximal activity (AC50) under setting [1] was 25.9 µM [rising, partial curve, poor fit].
As to `C/C(=N\NC(=O)c1ccco1)c1ccc(NC(=O)C(F)(F)F)cc1`, the half-maximal activity concentration (AC50) under setting [1] is 15.8 µM [falling, single point].
Same read-out and setting: for `COc1cc2c(cc1OC)C(COc1cc(C)cc(C)c1)N(C(=O)C(C)(C)C)CC2` (configuration not stated) the value was 8.91 µM [rising, partial curve, poor fit]; for `Fc1cccc(/C=N/N=C/c2cccc(F)c2)c1`, 11.2 µM [rising, partial curve, poor fit]; for `Cc1c(C(=O)Nc2c(F)cccc2F)sc2ncn(Cc3ccccc3F)c(=O)c12`, 8.91 µM [rising, partial curve, poor fit].
As for `N#Cc1cccc(-n2nnnc2-c2ccccn2)c1`, the AC50 under setting [1] was 11.2 µM [rising, partial curve].
As for `Cc1cc(C(=O)N/N=C/c2cccc3ccccc23)c(C)o1`, the AC50 under setting [1] was 14.1 µM [falling, partial curve].
Still for that read-out and setting: as for `Cc1sc(N(C(=O)CCc2ccccc2)c2ccc(C(=O)O)cc2)nc1-c1ccccc1`, the figure is 1.41 µM [falling, full curve].
The same measure, in the same setting: for `CCOC(=O)Cc1nnc(NCc2ccccc2)c2ccccc12` the value was 11.2 µM [falling, partial curve].
The same measure, in the same setting: for `CC(=O)c1sc(NC(=O)c2ccc(C(C)(C)C)cc2)nc1C` the value was 1.26 µM [falling, partial curve].
With `COc1cc2c(c(OC)c1OC)C(c1ccc3c(c1)OCO3)CC(=O)O2` (configuration not stated), the AC50 is, setting by setting: under setting [1], 29.1 µM [rising, single point]; under setting [2], 20.6 µM [falling, single point].
In the case of `COc1ccccc1NS(=O)(=O)c1cc(Cl)ccc1OC`, under setting [1], the AC50 is 35.5 µM [rising, partial curve, poor fit].
As to `O=C(NC1CC1)c1cccc(NC(=O)c2cn3ccccc3n2)c1`, under setting [1], the AC50 is 8.2 µM [falling, partial curve].
Take `Cc1ccc(N(CC(=O)NCC2CCCO2)S(=O)(=O)c2ccccc2)c(C)c1` (configuration not stated): under setting [1], the AC50 was 6.31 µM [falling, single point].
The same measure, in the same setting: for `O=C(Cn1c(=O)c2cccn2c2ccccc21)NCc1cccc(F)c1` the value was 7.08 µM [rising, partial curve, poor fit].
Turning to `CCc1nnc(NS(=O)(=O)c2ccc(NCc3cc(Cl)cc(Cl)c3O)cc2)s1`, the AC50 under setting [1] was 35.5 µM [rising, single point].
`COc1ccc(OC)c(NC(=O)CSc2nc(=O)n(Cc3ccccn3)c3c2CCC3)c1`: the AC50 under setting [1] was 6.51 µM [falling, partial curve].
Same read-out and setting: as for `Cc1ccc(OCC(=O)Nc2ccccc2[N+](=O)[O-])c(Br)c1`, the figure is 5.01 µM [rising, partial curve]; as for `CN(C)c1ccc(-c2ccccc2)nn1`, 4.61 µM [rising, single point]; as for `CC(C)CCN1CN(S(=O)(=O)c2cccs2)c2nc3ccccc3nc21`, 4.61 µM [rising, single point].
For `CCS(=O)(=O)Nc1cc(OC)c(OC)cc1Cc1nccc2cc(OC)c(OC)cc12`, under setting [1], the half-maximal activity concentration (AC50) is 7.08 µM [rising, full curve, poor fit].
`CC(CCc1ccccc1)NC(=O)Cc1ccccc1` (configuration not stated): under setting [1], the AC50 is 29.1 µM [rising, single point].
For `COc1ccccc1N(CC(=O)N(c1ccccc1)C(C)C)S(=O)(=O)c1cccs1`, the AC50 under setting [1] is 11.2 µM [falling, partial curve].
For `Cc1cc(C)nc(Nc2n[nH]c(-c3cccc4ccccc34)n2)n1`, the AC50 under setting [1] is 1.58 µM [falling, full curve, poor fit].
Take `COc1cccc(NC(=O)/C=C/c2ccc([N+](=O)[O-])cc2)c1`: the concentration at half-maximal activity (AC50) under setting [1] is 0.708 µM [falling, full curve].
On to `NS(=O)(=O)c1cccc(NC(=O)CCS(=O)(=O)c2ccc(Cl)cc2)c1`, for which, under setting [1], the AC50 is 20 µM [rising, single point].
On to `CCOc1ccc(-c2nc(C#N)c(NCC(C)C)o2)cc1`, for which the AC50 under setting [1] was 7.94 µM [rising, partial curve, poor fit].
Regarding `CCOC(=O)c1sc(NC(=O)CN2CC(C)OC(C)C2)nc1C` (configuration not stated), the AC50 under setting [1] is 31.6 µM [falling, single point].
In the case of `O=C(Nc1ccncc1)c1ccc([N+](=O)[O-])cc1Cl`, the AC50 under setting [1] was 11.2 µM [falling, partial curve].
On to `CC1CN(CCOCCSc2ccccc2)CC(C)O1` (configuration not stated), for which, under setting [1], the AC50 was 6.31 µM [rising, partial curve, poor fit].
As for `O=C(Nc1ccc(Br)c(C(F)(F)F)c1)c1ccc(C(F)(F)F)cc1`, the AC50 under setting [1] was 5.62 µM [rising, full curve, poor fit].
On to `Cc1ccc(OC(C)C(=O)N=Nc2c(O)[nH]c3ccc([N+](=O)[O-])cc23)cc1` (configuration not stated), for which, under setting [1], the AC50 is 3.98 µM [rising, single point].
`CC(C)(C)c1ccc(C(=O)Nc2cccc(-n3cnnn3)c2)cc1`: the AC50 under setting [1] is 22.4 µM [falling, single point].
Consider `O=C(COc1ccccc1)Nc1cccc(-c2nc3cc4ccccc4cc3[nH]2)c1`, for which the AC50 under setting [1] is 28.2 µM [falling, partial curve, poor fit].
Same read-out and setting: as for `CCCNc1c(NS(=O)(=O)c2ccc(Cl)s2)c(=O)oc2ccccc12`, the figure is 20 µM [falling, partial curve]; as for `COc1ccc(-n2c(=O)c3c(C)c(C)sc3n(Cc3cccc(F)c3)c2=O)c(OC)c1`, 8.91 µM [falling, partial curve, poor fit].
Take `O=S(=O)(NCCc1csc2nc(-c3ccc(Cl)cc3)nn12)c1cccs1`: the AC50 under setting [1] is 35.5 µM [falling, single point] and the AC50 under setting [2] was 15.8 µM [rising, partial curve, poor fit].
For the compound `COC(=O)c1ccc(CSc2nnc(SCc3ccc(C(=O)OC)o3)s2)o1`, under setting [1], the AC50 is 17.8 µM [falling, single point].
Regarding `Cc1ccc(Oc2ccc(Cl)cc2N)cc1`, the AC50 under setting [1] is 6.31 µM [rising, partial curve].
In the case of `CCCc1cc(C(=O)Nc2ccc(C(=O)c3ccc(C)cc3)cc2)n(C)n1`, the AC50 under setting [1] was 35.5 µM [falling, single point].
As to `COc1ccccc1-c1cc(C(=O)Nc2cccnc2)no1`, the AC50 under setting [2] is 12.6 µM [falling, partial curve].
`O=C(NC1CCS(=O)(=O)C1)c1cc(-c2ccccc2)nc2ccccc12` (configuration not stated): the AC50 under setting [1] is 2 µM [rising, full curve, poor fit].
For the compound `CC(=O)Nc1ccc(NC(=O)Cc2sc(C)nc2-c2ccc(C)cc2)cc1`, the AC50 under setting [1] was 3.66 µM [rising, partial curve, poor fit].
With `CCOC(=O)c1sc2nc(C)[nH]c(=S)c2c1C`, under setting [1], the concentration at half-maximal activity (AC50) is 8.91 µM [rising, partial curve, poor fit].
As for `Cc1cc(C(=O)OCC(=O)NCCc2ccc(S(N)(=O)=O)cc2)c2ccccc2n1`, under setting [1], the half-maximal activity concentration (AC50) was 2.31 µM [rising, partial curve, poor fit].
On to `CC(=O)Nc1cc2c(cc1Br)OCCO2`, for which, under setting [1], the AC50 is 23.1 µM [falling, single point].
Turning to `Cc1cccc(-n2ncc3c(NCCOCCO)ncnc32)c1`, the AC50 under setting [2] is 0.562 µM [rising, full curve, poor fit].
